No constants are given. Whether binding was seen depends on the method and setting. Some binding calls cover weakened binding; strength is not graded here. Where a sequence is shown, tags or fusion partners need not be part of it.
What was measured:
Assay in all cases: crystal structure; A_(core) construct co-expressed with Tcp13 in E. coli, purified together, crystallised as a complex by sitting drop vapour diffusion at 20 °C; 8GJ4 solved with two dimers of Tcp9 A1_(core-tei)/Tcp13; both purified
[1] = molecular target: Tcp9 A1_(core-Tei), A_(core) construct of the Hpg-accepting A1 adenylation domain from teicoplanin biosynthesis (residues 9-398) (UniProt Q70AZ9)
[2] = molecular target: Tcp9 A1_(core-ANC3), pocket graft of the ANC3 substrate pocket into A1_(core-tei) (UniProt Q70AZ9)
[3] = molecular target: Tcp9 A1_(core-ANC2), pocket graft of the ANC2 substrate pocket into A1_(core-tei) (UniProt Q70AZ9)

Measured: binding

B1: MbtH-like protein Tcp13 from Actinoplanes teichomyceticus (protein, UniProt Q70AZ5 1-69)
chain: MTNPFDNEDGSFLVLVNGEGQHSLWPAFAEVPDGWTGVHGPASRQDCLGYVEQNWTDLRPKSLISQISD
binds: all assays above

Source: article PMC10687080, “Resurrecting ancestral antibiotics: unveiling the origins of modern lipid II targeting glycopeptides” (Nature Communications, 2023)
